Measured values published in publication doi:10.1101/2022.01.27.478073 (bioRxiv, 2022).
Like-named read-outs stand apart in the source and are kept apart here. No constants are given. Whether binding was seen depends on the method and setting. For part of these data: Binding seen in cells or lysates may run through a third protein. Some binding calls cover weakened binding; strength is not graded here. For part of these data: Sequences can lack the tags named with a protein.

T1: AtGPA1 (heterotrimeric G protein α subunit), bait from pDHB1-AtGPA1 (Arabidopsis) (UniProt P18064)
T1 sequence: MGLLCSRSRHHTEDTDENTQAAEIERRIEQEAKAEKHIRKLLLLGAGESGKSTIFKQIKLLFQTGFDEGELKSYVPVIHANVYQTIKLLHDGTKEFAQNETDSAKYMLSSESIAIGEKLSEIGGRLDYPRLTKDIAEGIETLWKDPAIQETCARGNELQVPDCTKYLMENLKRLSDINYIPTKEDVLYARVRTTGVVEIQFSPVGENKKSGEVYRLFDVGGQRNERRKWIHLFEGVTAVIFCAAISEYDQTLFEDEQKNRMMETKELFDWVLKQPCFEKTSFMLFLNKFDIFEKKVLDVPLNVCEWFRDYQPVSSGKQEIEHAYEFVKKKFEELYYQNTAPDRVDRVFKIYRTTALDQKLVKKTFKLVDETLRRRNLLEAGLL

T2: nYFP-AtGPA1 (Arabidopsis) (UniProt P18064)
T2 sequence: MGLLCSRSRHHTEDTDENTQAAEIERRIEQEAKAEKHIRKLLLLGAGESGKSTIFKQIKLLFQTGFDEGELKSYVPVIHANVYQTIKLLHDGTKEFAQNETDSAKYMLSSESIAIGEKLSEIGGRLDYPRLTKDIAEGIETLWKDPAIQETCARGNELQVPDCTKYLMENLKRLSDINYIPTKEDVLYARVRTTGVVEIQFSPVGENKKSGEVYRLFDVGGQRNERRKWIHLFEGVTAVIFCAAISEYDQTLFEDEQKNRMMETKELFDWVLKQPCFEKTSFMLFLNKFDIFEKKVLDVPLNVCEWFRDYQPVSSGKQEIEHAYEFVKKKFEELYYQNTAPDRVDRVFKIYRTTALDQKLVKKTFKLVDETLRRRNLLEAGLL

B1: AtNRT1.4 (nitrate transporter), prey from pPR3N-AtNRT1.4 (protein, UniProt Q9SZY4 1-577)
chain: MESKGSWTVADAVDYKGRPADKSKTGGWITAALILGIEVVERLSTMGIAVNLVTYLMETMHLPSSTSANIVTDFMGTSFLLCLLGGFLADSFLGRFKTIGIFSTIQALGTGALAVATKLPELRPPTCHHGEACIPATAFQMTILYVSLYLIALGTGGLKSSISGFGSDQFDDKDPKEKAHMAFFFNRFFFFISMGTLLAVTVLVYMQDEVGRSWAYGICTVSMAIAIVIFLCGTKRYRYKKSQGSPVVQIFQVIAAAFRKRKMELPQSIVYLYEDNPEGIRIEHTDQFHLLDKAAIVAEGDFEQTLDGVAIPNPWKLSSVTKVEEVKMMVRLLPIWATTIIFWTTYAQMITFSVEQASTMRRNIGSFKIPAGSLTVFFVAAILITLAVYDRAIMPFWKKWKGKPGFSSLQRIAIGLVLSTAGMAAAALVEQKRLSVAKSSSQKTLPISVFLLVPQFFLVGAGEAFIYTGQLDFFITQSPKGMKTMSTGLFLTTLSLGFFVSSFLVSIVKRVTSTSTDVGWLADNINHGRLDYFYWLLVILSGINFVVYIICALWFKPTKGKDSVEKENGKGFSVEDC
B2: AtATG8a (autophagy-related protein), prey from pPR3N-AtATG8a (protein, UniProt Q8LEM4 1-117)
chain: MAKSSFKISNPLEARMSESSRIREKYPDRIPVIVEKAGQSDVPDIDKKKYLVPADLTVGQFVYVVRKRIKLGAEKAIFVFVKNTLPPTAALMSAIYEEHKDEDGFLYMTYSGENTFG
B3: cYFP-AtNRT1.4 (protein, UniProt Q9SZY4 1-577)
chain: MESKGSWTVADAVDYKGRPADKSKTGGWITAALILGIEVVERLSTMGIAVNLVTYLMETMHLPSSTSANIVTDFMGTSFLLCLLGGFLADSFLGRFKTIGIFSTIQALGTGALAVATKLPELRPPTCHHGEACIPATAFQMTILYVSLYLIALGTGGLKSSISGFGSDQFDDKDPKEKAHMAFFFNRFFFFISMGTLLAVTVLVYMQDEVGRSWAYGICTVSMAIAIVIFLCGTKRYRYKKSQGSPVVQIFQVIAAAFRKRKMELPQSIVYLYEDNPEGIRIEHTDQFHLLDKAAIVAEGDFEQTLDGVAIPNPWKLSSVTKVEEVKMMVRLLPIWATTIIFWTTYAQMITFSVEQASTMRRNIGSFKIPAGSLTVFFVAAILITLAVYDRAIMPFWKKWKGKPGFSSLQRIAIGLVLSTAGMAAAALVEQKRLSVAKSSSQKTLPISVFLLVPQFFLVGAGEAFIYTGQLDFFITQSPKGMKTMSTGLFLTTLSLGFFVSSFLVSIVKRVTSTSTDVGWLADNINHGRLDYFYWLLVILSGINFVVYIICALWFKPTKGKDSVEKENGKGFSVEDC
B4: cYFP-AtATG8a (protein, UniProt Q8LEM4 1-117)
chain: MAKSSFKISNPLEARMSESSRIREKYPDRIPVIVEKAGQSDVPDIDKKKYLVPADLTVGQFVYVVRKRIKLGAEKAIFVFVKNTLPPTAALMSAIYEEHKDEDGFLYMTYSGENTFG

How the values were obtained:
[1] = target: T1, AtGPA1 (heterotrimeric G protein α subunit), bait from pDHB1-AtGPA1 (Arabidopsis); assay: two-hybrid
[2] = target: T1, AtGPA1 (heterotrimeric G protein α subunit), bait from pDHB1-AtGPA1 (Arabidopsis); assay: two-hybrid; remark: listed apart in the source
[3] = target: T2, nYFP-AtGPA1 (Arabidopsis); assay: split reporter

Row | Binder | binding [1] | binding [2] | binding [3]
1 | B1 | binds | binds | –
2 | B2 | binds | binds | –
3 | B3 | – | – | binds
4 | B4 | – | – | binds
